# Measurements: the supplement of paper PMC7666118
# Protein sequences, listed by entry. Tags and fused reporters are not part of them. Lines headed by an entry give the natural chain unless they say otherwise; changes in a name come on top.
# UniProt Q5JTZ9, whole entry: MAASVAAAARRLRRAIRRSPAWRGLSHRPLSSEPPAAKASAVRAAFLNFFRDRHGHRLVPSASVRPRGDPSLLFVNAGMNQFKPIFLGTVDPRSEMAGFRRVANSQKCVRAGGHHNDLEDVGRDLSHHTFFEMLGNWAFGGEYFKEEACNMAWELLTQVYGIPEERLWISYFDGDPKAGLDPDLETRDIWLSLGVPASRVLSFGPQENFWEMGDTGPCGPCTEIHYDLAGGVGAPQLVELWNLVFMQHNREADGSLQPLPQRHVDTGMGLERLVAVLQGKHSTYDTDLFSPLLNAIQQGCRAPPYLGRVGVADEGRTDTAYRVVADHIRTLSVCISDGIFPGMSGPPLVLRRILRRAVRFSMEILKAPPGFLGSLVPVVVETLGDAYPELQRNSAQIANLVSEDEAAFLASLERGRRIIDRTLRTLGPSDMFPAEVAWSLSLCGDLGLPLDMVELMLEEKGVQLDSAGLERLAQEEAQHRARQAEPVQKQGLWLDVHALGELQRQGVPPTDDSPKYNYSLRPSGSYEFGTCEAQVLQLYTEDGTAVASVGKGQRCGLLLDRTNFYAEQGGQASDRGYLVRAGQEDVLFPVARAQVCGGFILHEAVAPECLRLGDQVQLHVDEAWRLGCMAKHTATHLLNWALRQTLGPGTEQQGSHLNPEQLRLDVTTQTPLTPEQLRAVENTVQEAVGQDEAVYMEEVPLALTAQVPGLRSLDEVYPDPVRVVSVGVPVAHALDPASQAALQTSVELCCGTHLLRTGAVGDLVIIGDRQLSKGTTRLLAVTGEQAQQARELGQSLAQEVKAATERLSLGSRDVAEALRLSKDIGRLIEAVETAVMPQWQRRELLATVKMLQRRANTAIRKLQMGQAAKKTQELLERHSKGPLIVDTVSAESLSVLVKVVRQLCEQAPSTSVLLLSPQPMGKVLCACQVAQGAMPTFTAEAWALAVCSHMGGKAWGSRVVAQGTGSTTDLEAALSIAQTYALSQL
# UniProt Q7L211: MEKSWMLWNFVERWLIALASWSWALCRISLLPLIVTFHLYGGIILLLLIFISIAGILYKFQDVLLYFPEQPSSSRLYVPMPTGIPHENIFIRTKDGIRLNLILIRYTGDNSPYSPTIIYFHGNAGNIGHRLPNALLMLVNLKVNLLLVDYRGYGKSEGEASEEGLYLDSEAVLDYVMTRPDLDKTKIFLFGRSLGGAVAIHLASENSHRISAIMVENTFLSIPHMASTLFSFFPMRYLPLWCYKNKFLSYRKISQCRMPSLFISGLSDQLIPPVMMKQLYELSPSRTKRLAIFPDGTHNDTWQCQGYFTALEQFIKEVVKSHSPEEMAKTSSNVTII
# UniProt Q8IZP0: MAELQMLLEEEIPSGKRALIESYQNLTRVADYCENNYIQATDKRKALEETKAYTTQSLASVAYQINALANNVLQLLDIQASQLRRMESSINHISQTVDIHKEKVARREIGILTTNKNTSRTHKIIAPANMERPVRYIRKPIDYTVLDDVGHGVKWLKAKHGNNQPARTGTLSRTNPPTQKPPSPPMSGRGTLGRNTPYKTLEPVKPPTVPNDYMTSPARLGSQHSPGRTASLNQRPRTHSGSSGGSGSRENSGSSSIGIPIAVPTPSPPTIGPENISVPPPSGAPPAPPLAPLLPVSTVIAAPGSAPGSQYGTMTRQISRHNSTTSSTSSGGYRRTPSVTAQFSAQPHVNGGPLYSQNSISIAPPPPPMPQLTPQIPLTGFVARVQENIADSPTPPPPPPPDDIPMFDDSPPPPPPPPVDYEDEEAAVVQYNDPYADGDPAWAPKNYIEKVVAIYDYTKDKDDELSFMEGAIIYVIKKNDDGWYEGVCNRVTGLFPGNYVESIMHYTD
# UniProt Q9BV23: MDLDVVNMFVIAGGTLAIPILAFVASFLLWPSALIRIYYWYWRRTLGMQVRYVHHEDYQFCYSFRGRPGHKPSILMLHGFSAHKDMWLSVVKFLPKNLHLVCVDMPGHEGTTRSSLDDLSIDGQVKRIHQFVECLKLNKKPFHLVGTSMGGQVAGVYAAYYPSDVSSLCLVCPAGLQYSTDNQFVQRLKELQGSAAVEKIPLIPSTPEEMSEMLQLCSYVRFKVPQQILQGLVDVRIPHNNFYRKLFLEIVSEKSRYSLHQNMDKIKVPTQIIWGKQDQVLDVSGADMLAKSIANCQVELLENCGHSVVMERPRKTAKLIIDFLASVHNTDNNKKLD
# UniProt P09110: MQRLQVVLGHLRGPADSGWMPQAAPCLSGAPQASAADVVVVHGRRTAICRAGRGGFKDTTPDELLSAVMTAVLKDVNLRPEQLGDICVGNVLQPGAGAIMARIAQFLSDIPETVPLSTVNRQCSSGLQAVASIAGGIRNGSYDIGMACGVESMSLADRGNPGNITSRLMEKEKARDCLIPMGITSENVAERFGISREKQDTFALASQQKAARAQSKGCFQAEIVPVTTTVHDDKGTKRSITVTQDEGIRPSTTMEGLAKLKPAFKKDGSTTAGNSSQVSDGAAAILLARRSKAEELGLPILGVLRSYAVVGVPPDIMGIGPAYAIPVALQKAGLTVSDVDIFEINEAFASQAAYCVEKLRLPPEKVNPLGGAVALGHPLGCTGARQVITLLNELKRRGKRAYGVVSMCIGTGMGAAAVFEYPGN
# UniProt Q8N2K0: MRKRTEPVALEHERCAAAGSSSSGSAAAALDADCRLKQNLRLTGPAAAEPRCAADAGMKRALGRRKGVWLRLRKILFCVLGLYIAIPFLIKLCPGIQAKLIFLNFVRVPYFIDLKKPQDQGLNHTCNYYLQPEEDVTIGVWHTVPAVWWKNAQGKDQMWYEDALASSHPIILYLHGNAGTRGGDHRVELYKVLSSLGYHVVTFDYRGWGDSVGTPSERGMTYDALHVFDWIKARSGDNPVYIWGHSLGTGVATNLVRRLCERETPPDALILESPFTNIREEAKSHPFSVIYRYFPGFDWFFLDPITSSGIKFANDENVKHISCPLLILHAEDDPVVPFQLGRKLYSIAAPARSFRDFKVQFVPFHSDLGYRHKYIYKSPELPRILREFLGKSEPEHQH
# UniProt Q9NYB9: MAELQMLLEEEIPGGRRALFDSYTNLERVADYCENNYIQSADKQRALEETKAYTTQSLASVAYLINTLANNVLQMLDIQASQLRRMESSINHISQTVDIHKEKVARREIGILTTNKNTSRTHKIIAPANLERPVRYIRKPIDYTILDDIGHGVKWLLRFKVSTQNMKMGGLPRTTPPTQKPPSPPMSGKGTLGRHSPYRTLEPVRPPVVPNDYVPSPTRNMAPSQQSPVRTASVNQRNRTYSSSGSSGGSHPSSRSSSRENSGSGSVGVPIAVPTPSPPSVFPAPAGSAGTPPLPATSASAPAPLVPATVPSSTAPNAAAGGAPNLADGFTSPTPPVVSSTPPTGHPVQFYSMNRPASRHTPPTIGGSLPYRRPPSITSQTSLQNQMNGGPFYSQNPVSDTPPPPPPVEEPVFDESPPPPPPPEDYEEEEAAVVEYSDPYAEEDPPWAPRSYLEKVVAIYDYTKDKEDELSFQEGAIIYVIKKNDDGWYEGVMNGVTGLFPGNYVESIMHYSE
# UniProt P33527: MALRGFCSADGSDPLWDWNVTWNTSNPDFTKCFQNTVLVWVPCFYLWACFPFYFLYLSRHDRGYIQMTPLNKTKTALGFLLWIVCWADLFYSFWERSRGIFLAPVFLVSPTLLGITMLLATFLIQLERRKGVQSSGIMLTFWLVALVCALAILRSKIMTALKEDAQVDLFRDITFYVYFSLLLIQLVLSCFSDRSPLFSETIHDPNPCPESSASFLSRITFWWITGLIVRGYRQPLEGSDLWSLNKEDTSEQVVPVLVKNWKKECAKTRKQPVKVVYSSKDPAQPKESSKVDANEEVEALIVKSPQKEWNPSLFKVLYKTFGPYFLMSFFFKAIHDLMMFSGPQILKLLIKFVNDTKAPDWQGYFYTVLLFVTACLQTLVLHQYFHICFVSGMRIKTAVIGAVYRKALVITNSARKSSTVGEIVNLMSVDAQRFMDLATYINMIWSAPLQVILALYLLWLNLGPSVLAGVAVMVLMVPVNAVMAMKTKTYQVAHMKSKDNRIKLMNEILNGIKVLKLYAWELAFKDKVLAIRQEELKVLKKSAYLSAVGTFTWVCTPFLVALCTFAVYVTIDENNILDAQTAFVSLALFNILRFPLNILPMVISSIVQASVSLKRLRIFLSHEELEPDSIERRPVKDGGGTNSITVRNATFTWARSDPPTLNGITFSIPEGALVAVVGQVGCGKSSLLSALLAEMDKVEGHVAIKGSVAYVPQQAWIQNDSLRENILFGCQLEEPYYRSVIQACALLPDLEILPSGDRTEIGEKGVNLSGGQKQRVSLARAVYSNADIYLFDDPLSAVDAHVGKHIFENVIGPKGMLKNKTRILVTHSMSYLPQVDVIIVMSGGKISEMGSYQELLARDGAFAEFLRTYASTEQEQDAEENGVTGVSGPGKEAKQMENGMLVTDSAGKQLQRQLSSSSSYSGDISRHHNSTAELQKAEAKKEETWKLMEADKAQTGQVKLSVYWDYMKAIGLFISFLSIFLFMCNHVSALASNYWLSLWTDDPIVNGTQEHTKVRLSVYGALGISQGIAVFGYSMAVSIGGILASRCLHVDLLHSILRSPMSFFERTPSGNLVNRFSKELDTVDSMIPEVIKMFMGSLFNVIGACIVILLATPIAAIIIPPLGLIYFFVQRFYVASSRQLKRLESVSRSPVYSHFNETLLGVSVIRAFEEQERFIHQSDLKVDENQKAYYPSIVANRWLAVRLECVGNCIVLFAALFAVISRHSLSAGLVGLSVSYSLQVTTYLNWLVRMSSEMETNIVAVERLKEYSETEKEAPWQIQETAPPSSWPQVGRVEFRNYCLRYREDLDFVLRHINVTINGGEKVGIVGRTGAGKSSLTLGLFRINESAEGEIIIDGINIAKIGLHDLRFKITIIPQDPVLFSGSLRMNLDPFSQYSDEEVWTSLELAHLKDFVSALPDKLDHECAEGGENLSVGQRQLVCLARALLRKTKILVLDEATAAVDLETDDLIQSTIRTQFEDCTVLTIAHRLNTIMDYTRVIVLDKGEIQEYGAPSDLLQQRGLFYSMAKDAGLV
# The list shows a part of the results.
# Compound: COc1ccc(Cn2ccc3ccc(C(=O)NO)cc32)cc1
# Test: dose-dependent thermal stabilisation call (2D-TPP, DLPTP, 10% FDR) (binary (1 = stabilised)); higher = stabilised by the compound
# Details: system: HL-60 intact cells; concentration range 0.04-10 µM
row,Target,dose-dependent thermal stabilisation call
1,AARS2 (UniProt Q5JTZ9),inactive: 0
2,ABHD13 (UniProt Q7L211),inactive: 0
3,ABI1 (UniProt Q8IZP0),inactive: 0
4,ABHD6 (UniProt Q9BV23),inactive: 0
5,ACAA1 (UniProt P09110),inactive: 0
6,ABHD12 (UniProt Q8N2K0),inactive: 0
7,ABI2 (UniProt Q9NYB9),inactive: 0
8,ABCC1 (UniProt P33527),inactive: 0
9,21 KDA PROTEIN.,inactive: 0
